Article PMC11071249

Protein sequences, listed by entry. Tags and fused reporters are not part of them. Lines headed by an entry give the natural chain unless they say otherwise; changes in a name come on top.
UniProt Q9Y4B6: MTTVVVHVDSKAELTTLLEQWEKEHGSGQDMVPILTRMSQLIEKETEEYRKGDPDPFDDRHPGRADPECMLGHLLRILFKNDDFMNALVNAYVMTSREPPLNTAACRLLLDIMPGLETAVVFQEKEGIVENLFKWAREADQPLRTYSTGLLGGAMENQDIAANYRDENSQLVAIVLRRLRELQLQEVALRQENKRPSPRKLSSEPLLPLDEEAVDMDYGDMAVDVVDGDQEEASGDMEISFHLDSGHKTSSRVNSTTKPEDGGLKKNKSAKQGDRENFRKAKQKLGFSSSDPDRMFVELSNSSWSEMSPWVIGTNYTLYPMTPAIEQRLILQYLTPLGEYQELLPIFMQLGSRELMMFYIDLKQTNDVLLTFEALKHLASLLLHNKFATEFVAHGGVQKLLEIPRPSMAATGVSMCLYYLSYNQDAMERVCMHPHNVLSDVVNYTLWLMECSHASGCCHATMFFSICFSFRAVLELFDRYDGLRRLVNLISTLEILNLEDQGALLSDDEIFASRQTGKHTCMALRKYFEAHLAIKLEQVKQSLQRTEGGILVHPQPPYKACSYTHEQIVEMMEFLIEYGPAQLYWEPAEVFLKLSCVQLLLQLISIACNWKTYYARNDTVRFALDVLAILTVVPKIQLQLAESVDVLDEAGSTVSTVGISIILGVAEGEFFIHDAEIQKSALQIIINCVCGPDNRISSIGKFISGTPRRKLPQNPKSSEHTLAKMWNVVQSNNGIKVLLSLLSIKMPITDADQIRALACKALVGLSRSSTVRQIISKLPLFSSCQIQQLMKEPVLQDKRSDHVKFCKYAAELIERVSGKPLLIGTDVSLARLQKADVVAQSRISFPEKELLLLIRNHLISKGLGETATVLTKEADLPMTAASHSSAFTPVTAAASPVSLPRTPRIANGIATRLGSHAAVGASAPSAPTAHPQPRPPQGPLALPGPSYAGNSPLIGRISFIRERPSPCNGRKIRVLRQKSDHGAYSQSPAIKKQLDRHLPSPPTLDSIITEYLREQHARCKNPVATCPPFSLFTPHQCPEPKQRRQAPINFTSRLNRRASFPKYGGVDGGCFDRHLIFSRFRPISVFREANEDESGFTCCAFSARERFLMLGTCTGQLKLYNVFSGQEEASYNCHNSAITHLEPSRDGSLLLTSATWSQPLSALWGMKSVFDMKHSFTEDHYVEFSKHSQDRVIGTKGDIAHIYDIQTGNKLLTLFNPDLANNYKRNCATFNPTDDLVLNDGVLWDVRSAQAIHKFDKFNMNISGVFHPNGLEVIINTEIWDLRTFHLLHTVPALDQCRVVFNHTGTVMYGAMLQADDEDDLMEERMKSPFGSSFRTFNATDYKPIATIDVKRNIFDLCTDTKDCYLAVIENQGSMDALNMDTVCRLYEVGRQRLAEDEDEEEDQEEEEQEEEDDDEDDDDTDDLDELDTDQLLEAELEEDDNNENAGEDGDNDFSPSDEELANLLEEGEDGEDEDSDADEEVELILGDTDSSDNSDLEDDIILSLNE
UniProt Q8TEW0: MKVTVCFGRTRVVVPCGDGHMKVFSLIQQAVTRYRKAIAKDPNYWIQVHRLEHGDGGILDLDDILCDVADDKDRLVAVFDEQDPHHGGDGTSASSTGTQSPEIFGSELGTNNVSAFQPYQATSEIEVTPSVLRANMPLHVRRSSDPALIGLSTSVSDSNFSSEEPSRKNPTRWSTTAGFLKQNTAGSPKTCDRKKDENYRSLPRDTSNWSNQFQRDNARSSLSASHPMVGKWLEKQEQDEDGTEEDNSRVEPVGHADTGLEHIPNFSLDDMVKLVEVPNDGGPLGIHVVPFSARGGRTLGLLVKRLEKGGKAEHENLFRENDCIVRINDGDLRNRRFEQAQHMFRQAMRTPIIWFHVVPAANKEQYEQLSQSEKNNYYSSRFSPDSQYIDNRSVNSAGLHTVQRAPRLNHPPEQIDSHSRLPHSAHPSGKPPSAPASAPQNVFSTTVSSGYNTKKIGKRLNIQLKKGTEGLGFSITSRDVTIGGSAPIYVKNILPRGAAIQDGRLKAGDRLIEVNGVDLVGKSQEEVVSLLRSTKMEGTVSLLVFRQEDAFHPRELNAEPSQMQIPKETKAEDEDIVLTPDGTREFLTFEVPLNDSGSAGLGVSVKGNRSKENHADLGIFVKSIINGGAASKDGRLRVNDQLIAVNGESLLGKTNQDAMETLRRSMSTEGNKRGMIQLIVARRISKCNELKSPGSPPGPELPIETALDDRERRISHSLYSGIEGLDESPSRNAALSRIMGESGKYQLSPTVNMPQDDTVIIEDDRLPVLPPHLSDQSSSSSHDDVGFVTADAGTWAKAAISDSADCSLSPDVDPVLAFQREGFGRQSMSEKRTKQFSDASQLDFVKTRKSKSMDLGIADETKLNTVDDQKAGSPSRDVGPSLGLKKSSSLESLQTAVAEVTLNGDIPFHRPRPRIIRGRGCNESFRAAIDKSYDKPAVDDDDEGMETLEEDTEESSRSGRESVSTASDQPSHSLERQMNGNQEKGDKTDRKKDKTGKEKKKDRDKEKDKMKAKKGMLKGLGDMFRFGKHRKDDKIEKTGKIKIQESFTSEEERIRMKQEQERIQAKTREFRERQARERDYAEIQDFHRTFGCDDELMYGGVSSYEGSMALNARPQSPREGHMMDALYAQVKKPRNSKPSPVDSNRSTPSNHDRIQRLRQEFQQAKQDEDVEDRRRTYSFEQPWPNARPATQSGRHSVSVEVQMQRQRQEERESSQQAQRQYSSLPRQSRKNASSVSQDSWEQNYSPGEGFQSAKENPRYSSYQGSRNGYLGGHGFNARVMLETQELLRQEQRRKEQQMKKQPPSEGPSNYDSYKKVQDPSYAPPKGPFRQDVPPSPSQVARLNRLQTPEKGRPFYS

Molecular target: DCAF1 C-terminus containing residues 1339–1507 (UniProt Q9Y4B6)
Experiment: co-IP; DCAF1 deletion mutants transiently transfected into HCC cells; immunoprecipitation and Western blot

## par-3 family cell polarity regulator (PARD3) (from UniProt Q8TEW0 1-1356)
  binding: binds

Results are given in words; binding and its absence hold for the method and conditions named. In cells and extracts the contact can be indirect. A result given as binding can be weak or reduced; the word gives no strength.
